PubChem BioAssay AID1117359 (Southern Research Institute, 2015)
Several values for one entry are separate records, joined by “and”; a condition that tells them apart may be missing. Equal entries are not always repeated. The campaign covered roughly 1,500 compounds. About 460 (31%) were called active.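 How the source made its calls: active means viability at or below 80% at any tested concentration, marking the compound as toxic; inactive means the rest.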 The entries are a selection whose mix differs from that of the whole data set. Potency and affinity values are given separately.

Test: viability loss in THP-1 monocytes – THP-1 cells, cytotoxicity control for Vif-APOBEC3G degradation inhibitor project, dose response (AID 1117359)
Conditions: THP-1 viability, CellTiter-Glo luminescence, 72 h; at 40 µM (top of the series)

Row | Compound | viability
1 | Nc1nc(SCc2nc3scc(-c4ccccc4)c3c(=O)[nH]2)n[nH]1 | inactive: 90.6%
2 | CC(=O)Oc1cccc(N2C(=O)CC(Nc3ccc(N4CCOCC4)cc3)C2=O)c1 (stereo not given) | inactive: 104%
3 | CCN(CC(=O)NCc1cccs1)C(=O)c1ccc([N+](=O)[O-])o1 | inactive: 99.9%
4 | N#Cc1ccccc1CN1C(=O)S/C(=C/c2cccn2-c2cccc(C(=O)O)c2)C1=O | inactive: 98.7%
5 | CCCn1c(=O)c(-c2ccccc2)c(O)c2ccccc21 | inactive: 103%
6 | C[n+]1cccc2cccc([O-])c21 | inactive: 98.1%
7 | O=c1cc(-c2ccc(O)c(O)c2)oc2cc(O)c(C3OC(CO)C(O)C(O)C3O)c(O)c12 (stereo not given) | inactive: 103%
8 | O=C1CC(Nc2ccc(N3CCOCC3)cc2)C(=O)N1C1CCCCC1 (stereo not given) | inactive: 80.7%
9 | NC(=O)/C(=C/c1ccco1)C(N)=S | inactive: 94.8%
10 | CSc1ccc(/C=N/n2c(C3CCCCC3)n[nH]c2=S)cc1 | inactive: 83.4%
11 | COc1ccc2nc3ccccc3nc2c1N | inactive: 95.1%
12 | COc1ccc(NS(=O)(=O)c2cc(N=Nc3c(O)[nH]c(=O)[nH]c3=O)ccc2Cl)cc1 | inactive: 80.5%
13 | CCOc1ccc2nc(Cl)c(C3CC(c4ccccc4)=NN3C(=O)c3cccs3)cc2c1 (stereo not given) | inactive: 91.6%
14 | CSc1ccccc1NC(=O)c1noc2c1CCC2 | inactive: 98.2%
15 | Cn1c(CNC(=O)C2CCCCC2)cc2cc(Cl)ccc21 | inactive: 101%
16 | O=C(O)C1=NN(c2cc(Cl)c(S(=O)(=O)O)cc2Cl)C(=O)C1 | inactive: 89.4%
17 | O=C(NN1C(=O)/C(=C/C=C/c2ccco2)SC1=S)c1ccncc1 | inactive: 102%
18 | COCCn1c(SCC(=O)Nc2cccc(C)n2)nnc1-c1ccco1 | inactive: 104%
19 | CCOc1ccccc1C(=S)NC1CCCCC1 | inactive: 101%
20 | CCOC(CNC(=O)C(=O)Nc1cc2c3c(c1)CC(=O)N3CCC2)OCC | inactive: 97.9%
21 | O=C(CCCCCN1C(=O)c2ccccc2C1=O)Nc1nccs1 | inactive: 97.2%
22 | CCCN(CC(=O)Nc1ccccc1C)C(=O)COC(=O)c1cnc(C)cn1 | inactive: 105%

Row | Compound | viability
23 | O=C(NCCO)Nc1ccc2nc(-c3ccco3)c(-c3ccco3)nc2c1 | inactive: 119%
24 | O=C(NCCCO)c1ccc2nc(-c3ccco3)c(-c3ccco3)nc2c1 | inactive: 86.7%
25 | CCN1C[C@@H]2[C@@H]3C(=O)N(Cc4ccccc4)C(=O)[C@@H]3[C@](C)(C(=O)OC)N2C1=NC1CCCCC1 | inactive: 99.2%
26 | O=C1CC(c2ccco2)CC(O)=C1C=Nc1cc(Cl)ccc1Cl (stereo not given) | inactive: 86.1%
27 | COc1ccc(NC(=O)CN(C)C(=O)c2cccc(-n3cccc3)c2)cc1 | inactive: 83.6%
28 | CC(C)CCNC(=O)c1ccc2c(SCC(=O)O)c3c(nc2c1)CCC3 | inactive: 106%
29 | O=C(COC(=O)c1cc(=O)[nH]c2ccccc12)Nc1cccc(S(=O)(=O)N2CCOCC2)c1 | inactive: 94.1%
30 | CCOCCCNC(=O)C1CCN(S(=O)(=O)CC)CC1 | inactive: 111%
31 | O=c1[nH]c(=S)[nH]c2c1C(c1ccc(Br)cc1)c1c([nH]c(=S)[nH]c1=O)O2 | inactive: 89.3%
32 | Cc1cc([N+](=O)[O-])cc2c1NC(c1ccccn1)C1CC=CC21 (stereo not given) | inactive: 109%
33 | O=C(N/N=C/C=C/c1ccco1)c1ccncc1 | inactive: 99.2%
34 | COc1ccc(/C=N\NC(=O)c2cc(O)c(O)c(O)c2)cc1CN1CCN(c2ccc(F)cc2)CC1 | inactive: 100%
35 | O=C(NCc1ccccn1)c1ccc2nc(-c3ccco3)c(-c3ccco3)nc2c1 | inactive: 87.2%
36 | CC1CCC/C(=C\Nc2ccc(C(=O)O)c(O)c2)C1=O (stereo not given) | inactive: 107%
37 | Nn1c(SCC(=O)NCCc2ccc(F)cc2)nnc1C1CCCCC1 | inactive: 92.2%
38 | CC(C)(C)C1C/C(=C/c2ccco2)C(=O)/C(=C/c2ccco2)C1 (stereo not given) | inactive: 86%
39 | COc1ccc2c3c(cccc13)N(C)N=C2C | inactive: 87.9%
40 | CC1CCN(Cc2c(O)ccc3c2O/C(=C\c2ccco2)C3=O)CC1 | inactive: 85.3%
41 | Nc1cccc2c(O)cc(S(=O)(=O)O)cc12 | inactive: 110%
42 | Cc1c(Cl)cccc1NS(=O)(=O)c1ccc2c(c1)C1C=CCC1C(c1ccc(C(=O)O)cc1)N2 (stereo not given) | inactive: 110%
43 | O=C1CCCC(O)=C1N=Nc1ccc(C(=O)O)cc1 | inactive: 111%
44 | O=c1[nH][nH]c2c(N=Cc3ccccc3O)ccc(F)c12 | inactive: 109% and inactive: 84.9%

Look-ups from the list:
For viability, O=c1[nH][nH]c2c(N=Cc3ccccc3O)ccc(F)c12 is entered as inactive: 109% and inactive: 84.9%
For viability, COc1ccc(NC(=O)CN(C)C(=O)c2cccc(-n3cccc3)c2)cc1 is entered as inactive: 83.6%
For viability, O=C1CCCC(O)=C1N=Nc1ccc(C(=O)O)cc1 is entered as inactive: 111%
For viability, CC(C)CCNC(=O)c1ccc2c(SCC(=O)O)c3c(nc2c1)CCC3 is entered as inactive: 106%
For viability, Cc1cc([N+](=O)[O-])cc2c1NC(c1ccccn1)C1CC=CC21 (stereo not given) is entered as inactive: 109%

Additional results follow.

Row | Compound | viability
45 | CCOc1ccc(N2CC(C(=O)NCC(=O)Nc3ccc(F)c(F)c3F)CC2=O)cc1 (stereo not given) | inactive: 113%
46 | Cc1c(C)c2ccc(O[C@@H]3O[C@H](CO)[C@H](O)[C@H](O)[C@H]3O)c(C)c2oc1=O | inactive: 92.9%
47 | Cc1ccc(C)c(NC(=O)CN(C)C(=O)c2cccc(-n3cccc3)c2)c1 | inactive: 97.3%
48 | CCn1c(C)nc2cc(C(=O)NNC(=O)CCC3CCCCC3)ccc21 | inactive: 102%
49 | Cc1nn(Cc2ccccc2)c(C)c1/C=N/NC(=O)c1ccccc1O | inactive: 96.5%
50 | O=C(CCS(=O)(=O)c1ccc(Br)cc1)NCCc1ccccc1 | inactive: 97.9%
51 | CC1(C)N([O-])c2cc([N+](=O)[O-])ccc2[N+]1=O | inactive: 93.5%
52 | O=C(O)CCCCC1SCC2NC(=O)NC21 (stereo not given) | inactive: 118%
53 | Cc1ccnc(NS(=O)(=O)c2ccc(NC(=O)Cc3cccs3)cc2)n1 | inactive: 109%
54 | Cc1nc(-c2noc(-c3ccccc3Cl)n2)c(C(F)(F)F)o1 | inactive: 86.2%
55 | COc1cc(/C=N/NC(=O)c2ccc(NS(=O)(=O)c3cccs3)cc2)cc(OC)c1O | inactive: 93.2%
56 | COC/C=C/C1=CC2=CC(=O)C(C)(OC(=O)CCC(=O)OC)C(=O)C2=CO1 (stereo not given) | inactive: 97.6%
57 | O=C(Nc1ccc(COc2ccccc2)cc1)Oc1ccccc1N1CCOCC1 | inactive: 104%
58 | CC(C)(C)NCCCCOc1ccc(F)cc1 | inactive: 103%
59 | Cc1n[nH]c(=S)n(NC(=O)/C=C/C(=O)Nn2c(=S)[nH]nc(C)c2=O)c1=O | inactive: 84.8%
60 | CC1(C)CC2(CC(c3ccccc3F)c3ccc(O)c(O)c3O2)NC(=S)N1 (stereo not given) | inactive: 94%
61 | O=C(C1CCCC1)N1CCCC(Nc2ccc(F)cc2)C1 (stereo not given) | inactive: 96.4%
62 | Cc1ccc(/C=C2\SC(=S)N(c3cccnc3)C2=O)o1 | inactive: 98.8%
63 | O=C(c1cc2ccccc2o1)N1CC=C(c2ccccc2)CC1 | inactive: 81.2%
64 | NS(=O)(=O)c1ccc(N/N=C/c2ccc(O)c(O)c2O)c([N+](=O)[O-])c1 | inactive: 98.6%
65 | Cc1ccc(N=Cc2nc(-c3ccc(C)cc3)oc2O)cc1 | inactive: 98.1%
66 | NC(=O)c1ccc(N2CCN(c3ncc(C(F)(F)F)cc3Cl)CC2)cc1 | inactive: 90.5%

Row | Compound | viability
67 | COc1ccc(C(CNCC(=O)Nc2ccccc2F)N(C)C)cc1 (stereo not given) | inactive: 94.4%
68 | CCC(C)(C)n1nnnc1C(c1ccc2ncccc2c1)N1CCN(c2ccc(O)cc2)CC1 (stereo not given) | inactive: 106%
69 | O=S(=O)(O)c1cc(O)c(N=Nc2ccc(O)cc2O)c2ccccc12 | inactive: 104%
70 | CS(=O)(=O)c1ccc2nnn(OCC(=O)Nc3cccc(C#N)c3)c2c1 | inactive: 88.4%
71 | O=C(Nc1cccnc1)c1sc(Nc2ccccc2F)nc1-c1ccccc1 | inactive: 89%
72 | CCC(C)Cn1c(O)cc2nn(-c3nc4ccccc4s3)c(=O)c-2c1C (stereo not given) | inactive: 94.1%
73 | O=C(/C=C/c1ccco1)N(c1ccccn1)c1ccccn1 | inactive: 105%
74 | O=C(O)c1ccc(N2C(=O)c3cccnc3C2=O)cc1 | inactive: 81.2%
75 | COC(C[C@H]1O[C@@H]1[C@@H](O)COCc1ccccc1)OC | inactive: 113%
76 | COc1ccc(-c2cc(-c3ccco3)[nH]c(=O)c2C#N)cc1 | inactive: 101%
77 | CC12CCC(C(=O)Nc3ccc(Br)cn3)(OC1=O)C2(C)C (stereo not given) | inactive: 99.9%
78 | CNc1ccccc(C(=O)/C=C/c2ccccc2OC)c1=O | inactive: 89.9%
79 | COc1ccc(S(=O)(=O)NNC(=O)c2sccc2-n2cccc2)cc1 | inactive: 93.2%
80 | CN(C)c1ccc2cc(S(=O)(=O)O)cc(O)c2c1 | inactive: 88.2%
81 | N=C1S/C(=C\c2ccco2)C(=O)N1c1ccc2c(c1)OCO2 | inactive: 88.7%
82 | CCn1c(SC(C)C(=O)O)nc2sc3c(c2c1=O)CCC3 (stereo not given) | inactive: 104%
83 | CC(=O)[C@@]1(O)CC[C@H]2[C@@H]3CCC4=CC(=O)CC[C@]4(C)[C@H]3CC[C@@]21C | inactive: 99.5%
84 | Oc1cc2c(cc1O)C1c3ccc(O)c(O)c3OCC1(O)C2 (stereo not given) | inactive: 87.1%
85 | COc1ccc(N2C(=O)CC(Nc3ccc(N4CCOCC4)cc3)C2=O)c(OC)c1 (stereo not given) | inactive: 100%
86 | Cc1ccc(N/N=C/c2c(C)c(C#N)c(=O)n(C)c2O)cc1C | inactive: 109%
87 | COc1cccc(-c2nc(-c3cccs3)no2)c1 | inactive: 84%
88 | Nc1ccc(N(CCO)CCO)cc1 | inactive: 98.5%

Row | Compound | viability
89 | CCOc1ccc(S(=O)(=O)N2CC(=O)Nc3ccccc32)cc1C#N | inactive: 89.5%
90 | COc1cccc2c1NC(C(=O)O)C1CC=CC21 (stereo not given) | inactive: 102%
91 | CC(=O)Nc1ccc(S(=O)(=O)Nc2nc3ccccc3nc2Nc2ccc(C(=O)O)c(O)c2)cc1 | inactive: 99.1%
92 | CCC1=C2CC[C@H]3C(=O)NC(=O)[C@H]3[C@H]2[C@@]2(Cc3ccccc3)C(=NCC(=O)OC)OC(=O)N2C1=O | inactive: 93.3%
93 | COc1ccc(CCNS(=O)(=O)CCNC(=O)c2ccc3c(c2)OCO3)cc1 | inactive: 84.2%
94 | C[C@H](NC(=O)NCc1cccs1)C(=O)O | inactive: 93.5%
95 | COc1ccccc1CN(C)C(=O)CN1CCN(C(=O)c2cccs2)CC1 | inactive: 90.8%
96 | COc1cc(NC(=O)c2noc3c2CCC3)c(OC)cc1Cl | inactive: 85.2%
97 | CCCCn1c(SCC(=O)Nc2ccc3c(c2)OCCO3)nnc1C(CC)N(C)C (stereo not given) | inactive: 95.5%
98 | Cc1ccc(-n2nc(C)c3c(C)c(CCC(=O)O)c(C)nc32)cc1 | inactive: 95.3%
99 | N=C1/C(=C/c2ccc(Br)o2)C(=O)N=C2SC(CC(=O)N3CCCC3)=NN12 | inactive: 100% and inactive: 84.6%
100 | COc1ccc(CNC(=O)C2CCCN(S(=O)(=O)c3c(C)nn(C)c3C)C2)cc1 (stereo not given) | inactive: 89.9%
101 | CN(C(=O)COC(=O)c1cc(-c2ccco2)nc2ccccc12)C1CCS(=O)(=O)C1 (stereo not given) | inactive: 111%
102 | CC(=O)Nc1ccc(S(=O)(=O)Nc2nc3ccccc3nc2Nc2ccc(N)cc2)cc1 | inactive: 106%
103 | O=C(CC1SCCNC1=O)Nc1ccc(Cl)cc1 (stereo not given) | inactive: 98.6%
104 | CN(C1CCCCC1)S(=O)(=O)c1cccc(C(=O)OCC(=O)NC2CCCc3ccccc32)c1 (stereo not given) | inactive: 98.4%
105 | O=C(Nc1ccc(N2CCCCC2)cc1)c1cc([N+](=O)[O-])cc([N+](=O)[O-])c1 | inactive: 86.7%
106 | COC(=O)c1ccc(C)c(NC(=O)CCSc2ccccc2)c1 | inactive: 91.3%
107 | CCOc1cccc(=O)c2c(C)n(-c3ccc(C(=O)O)cc3)c(C)c12 | inactive: 99.8%
108 | Cc1[nH]n(-c2nc(-c3ccccc3F)cc(=O)[nH]2)c(=O)c1CCO | inactive: 93.4%
109 | CC(=O)c1c(C)[nH]c(C(=O)OCC(=O)C(C)(C)C)c1C | inactive: 92.6%
110 | CC1=CC2(O)OCCN(CCO)C2=CC1=O (stereo not given) | inactive: 81.2%
